No constants are given. Whether binding was seen depends on the method and setting. In cells and extracts the contact can be indirect. A yes stands for co-enrichment or nearness to the bait. Other partners may have been found. Sequences can lack the tags named with a protein.
Target: T1, Sgo1-6His-3Flag (S. cerevisiae) (UniProt Q08490)
T1 sequence: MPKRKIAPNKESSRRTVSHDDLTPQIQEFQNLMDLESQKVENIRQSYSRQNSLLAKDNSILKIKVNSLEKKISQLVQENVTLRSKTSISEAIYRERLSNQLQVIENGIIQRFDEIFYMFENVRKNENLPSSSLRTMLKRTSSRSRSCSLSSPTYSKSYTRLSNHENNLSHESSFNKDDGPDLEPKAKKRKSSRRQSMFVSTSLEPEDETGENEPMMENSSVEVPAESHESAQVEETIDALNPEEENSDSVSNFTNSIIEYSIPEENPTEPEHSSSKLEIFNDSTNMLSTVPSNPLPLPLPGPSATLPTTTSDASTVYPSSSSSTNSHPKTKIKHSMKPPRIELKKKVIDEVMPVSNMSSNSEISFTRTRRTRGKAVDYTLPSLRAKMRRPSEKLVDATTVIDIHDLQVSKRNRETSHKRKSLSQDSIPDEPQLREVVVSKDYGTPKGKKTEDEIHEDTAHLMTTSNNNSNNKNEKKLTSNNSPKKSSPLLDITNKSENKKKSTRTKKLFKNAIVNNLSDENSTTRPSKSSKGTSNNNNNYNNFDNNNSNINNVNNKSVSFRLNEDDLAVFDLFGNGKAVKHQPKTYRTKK
Test: affinity purification with mass spectrometry; Sgo1-6His-3Flag immunoprecipitated with anti-Flag Protein G Dynabeads from benzonase-treated lysates of benomyl-arrested cells grown at 30°C (wild type, siz1Δ siz2Δ, sgo1-4R, sgo1-3A); label-free quantitative MS in triplicate

The chains behind the UniProt entries cited, without tags or fusion partners.
UniProt P38903: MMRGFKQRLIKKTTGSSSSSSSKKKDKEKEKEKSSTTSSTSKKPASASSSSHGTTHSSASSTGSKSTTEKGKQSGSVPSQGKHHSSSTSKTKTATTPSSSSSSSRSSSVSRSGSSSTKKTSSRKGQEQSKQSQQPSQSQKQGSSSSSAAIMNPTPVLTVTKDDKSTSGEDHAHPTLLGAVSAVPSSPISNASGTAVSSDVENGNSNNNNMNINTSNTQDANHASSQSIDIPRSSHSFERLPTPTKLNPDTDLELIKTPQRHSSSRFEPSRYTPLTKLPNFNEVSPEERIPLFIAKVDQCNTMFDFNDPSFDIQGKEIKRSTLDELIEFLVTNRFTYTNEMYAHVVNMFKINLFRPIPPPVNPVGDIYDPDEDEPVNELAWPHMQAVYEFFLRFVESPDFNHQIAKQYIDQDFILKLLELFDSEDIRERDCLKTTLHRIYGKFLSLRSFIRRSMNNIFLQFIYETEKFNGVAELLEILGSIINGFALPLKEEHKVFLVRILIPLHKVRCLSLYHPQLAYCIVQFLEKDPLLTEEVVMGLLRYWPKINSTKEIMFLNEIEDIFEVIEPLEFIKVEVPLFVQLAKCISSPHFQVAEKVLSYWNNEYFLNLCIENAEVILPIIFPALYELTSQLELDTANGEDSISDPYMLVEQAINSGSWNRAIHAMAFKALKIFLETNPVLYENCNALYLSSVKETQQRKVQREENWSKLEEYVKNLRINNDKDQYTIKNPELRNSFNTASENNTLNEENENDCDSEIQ

binding: binds
Substance: Rts1 (endogenous) (from UniProt P38903 1-757)
